This note sets out measurements from publication PMC3958431.

By UniProt entry, the sequences of proteins in these tests, tags left out.
UniProt P63279: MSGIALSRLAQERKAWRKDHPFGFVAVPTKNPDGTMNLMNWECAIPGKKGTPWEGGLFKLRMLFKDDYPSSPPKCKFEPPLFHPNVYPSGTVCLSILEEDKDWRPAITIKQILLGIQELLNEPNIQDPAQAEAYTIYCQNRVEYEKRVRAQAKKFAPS

For the experiment, the target named is Ubc9, SUMO conjugating enzyme, in the yeast two-hybrid assay (UniProt P63279). The experiment can be described thus: two-hybrid; yeast two-hybrid assay; unpublished data, no details given.

These are yes or no findings as the source states them, for the method shown. Some results given as binding are weak or reduced against the parent protein; the word gives no strength.

B1: ENS-1 in the yeast two-hybrid assay (protein, UniProt Q98TV2 1-490)
chain: MSNSMASMKSEDVLFDLLEKHGARPSVSGVDWARQNWYNLQSVSDRIRVLQNEARTRAGKGKSFICAVLGAALKAAVEFREEKNSTETQTIQALQESVKVTQELVKSLQSQIRSLEDQLEREKHNSVLLQTAFKELITCKDTGDTVIHSAPQEKVYPQGKLQEVKERLDKLEASPAHIRPLIKTEYTFDNSENLDPQMNVKEIPFSATELAKLKKDFSRSPKESETEYVWRVSLTGGDQILLTEKEAEGYWGPGVFLTTGNNRAPWSLTQRAAYWAGGLNPLERGDPLAITGTIDQLVENVQKAACLQMMYDRKLQPHNESPMMLPVNPERLTPLIRGLPESLKPIGIQLQGKIQAMSQGERTWAALEGSVAPNHQSGPKVWTWGEVAQELINYGRKYGPVVSTCSKFEPRGVRLAVASLASRPPSPRLIGTKKVSSPVKTGTRCIDHKRNGLWTLGWTKGIPRDLMNGLPTVRLEKLVNCWPEQKLKGS
For the molecule B1, the binding entry is recorded as “binds”.
